PMC5702341, “Identification of Antibody and Small Molecule Antagonists of Ferroportin-Hepcidin Interaction” (Frontiers in Pharmacology, 2017)

Tested on: C326-containing linear FPN peptide (hepcidin binding domain)
Assay: Thiol reactivity with linear FPN peptide by mass spectrometry
Parameters: species or system human

Row | Compound | fraction of peptide reacted (100 μM compound and 100 μM peptide, 20 mM acetate buffer pH 7, 12 h) | reaction with cysteine-containing peptide (100 μM iodoacetamide, 20 mM acetate buffer pH 7, within 1 h)
1 | O=S(=O)(c1ccc(Cl)cc1)c1cnc2ccccc2n1 [Compound 1, 2-[(4-chlorophenyl)sulfonyl]quinoxaline] | 50% | –
2 | NC(=O)CI [iodoacetamide, reference compound] | – | reacted completely
